Primary screen of a compound library

From ChEMBL document CHEMBL3988442, “University of Dundee, Small-Polar-MMV Screening Library” (2021).

Mtb cholesterol medium: 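Growth of Mycobacterium tuberculosis over 4 days (cholesterol / DPPC medium with tyloxapol); the read-out is not stated. Compounds at 50 µM. Direction is inferred from retests: higher values go with more growth inhibition. Of about 69,000 compounds tested this way, about 370 (0.54%) reached 50% or more in at least one test.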
Mtb glucose medium: 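Phenotypic screen: M. tuberculosis growth, glucose 7H9 medium, 3 days; the read-out is not stated. Tested at 50 µM. The record gives no direction; compounds that gave an IC50 in retests scored well above the rest, so higher reads as more growth inhibition. Of about 69,000 compounds tested this way, about 760 (1.1%) reached 50% or more in at least one test.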

Each number is a percent effect as filed.
The record does not define 0% and 100%; most values in the screen are far below 50% and negative numbers occur (in some assays of this library far below -100).
This is an unselected part of the compounds tested.
Two or more numbers in one place are separate tests of the same structure; such repeats can differ widely.

Result for Cn1ccnc1CN(CCCO)CC(F)(F)F was Mtb cholesterol medium: -20.21%; Mtb glucose medium: -32.22%. [H][C@@]12CS(=O)(=O)C[C@]1([H])N(Cc1ccc(CCC)o1)CCN2C(=O)C(C)C gave Mtb cholesterol medium: 12.93%; Mtb glucose medium: 12.49%. For Cc1noc(CNc2cccc(C(=O)N3CCCC(O)C3)c2)n1 (configuration not stated) the result was Mtb cholesterol medium: 13.15%; Mtb glucose medium: 9.004%. For CNC(=O)C1CCN(C(=O)NCc2ccc(C)n2C)CC1 the result was Mtb cholesterol medium: 9.024%; Mtb glucose medium: 12.67%. With CN(C)CC1(O)CCN(C(=O)c2cnc(CN3CCCC3)s2)C1 (configuration not stated) the screen gave Mtb cholesterol medium: 12.64%; Mtb glucose medium: 4.629% and 1.837%.

Result for CN(C)C(=O)CN1CCC2(CC1)COc1ccccc1S(=O)(=O)N(C)C2.O=C(O)C(F)(F)F was Mtb cholesterol medium: -4.661%; Mtb glucose medium: -9.269%. With [H][C@]12CC[C@]([H])(CN(C(=O)c3cc(Cl)c[nH]c3=O)C1)N(Cc1ccccc1)C2 the screen gave Mtb cholesterol medium: 6.3%; Mtb glucose medium: -27.68%. For [H][C@]12CCN(C(C)=O)[C@@]1([H])C[C@@H](C(=O)Nc1nc(C)cs1)O2 the result was Mtb cholesterol medium: 9.419%; Mtb glucose medium: 8.938%. For Cc1cc(NC(=O)NCC(c2ccccc2)N2CCOCC2)n(C)n1 (configuration not stated) the result was Mtb cholesterol medium: 9.097%; Mtb glucose medium: -0.5013% and -4.179%. CCN(C)c1ccc(CNC(=O)CCn2cc(C)cn2)cc1F gave Mtb cholesterol medium: 16.1% and 40.86%; Mtb glucose medium: 23.86%.

Cc1ccc(NC(=O)CN2CCC(OCC3CCCO3)CC2)c(C)c1 (configuration not stated) read Mtb cholesterol medium: -0.5414%; Mtb glucose medium: 2.05%. Cc1ccsc1C(=O)N1CCCN(Cc2cscn2)CC1 gave Mtb cholesterol medium: 12.92%; Mtb glucose medium: 10.07%. COc1cccc2c1ccn2CCC(=O)N1CCC(C(=O)O)CC1 gave Mtb cholesterol medium: -15.11%; Mtb glucose medium: -14.35%. With CC(C)N1CCC(c2nnc(CN3CCCC3)n2C2CC2)CC1 the screen gave Mtb cholesterol medium: -1.75%; Mtb glucose medium: 11.07%. Result for CC(C)C(NC(=O)c1ccccc1F)C(=O)Nc1cnn(C)c1 (configuration not stated) was Mtb cholesterol medium: -2.439%; Mtb glucose medium: -16.6%.

For COc1cc(C(C)=O)ccc1OCCNCc1ccco1.Cl the result was Mtb cholesterol medium: 3.477%; Mtb glucose medium: -7.216%. COc1ccc(C(=O)N(C)Cc2cccc(C#N)c2)c(OC)c1OC gave Mtb cholesterol medium: 19.36% and -2.495%; Mtb glucose medium: 24.17%. CCN1CCn2c(C)cnc2C12CCN(C(=O)NC)CC2.O=C(O)C(F)(F)F read Mtb cholesterol medium: -9.734% and -6.408%; Mtb glucose medium: 5.06%. With O=C1CCC(CCC(=O)N2CCCC2c2nccs2)=NN1 (configuration not stated) the screen gave Mtb cholesterol medium: -16.67%; Mtb glucose medium: -46.47% and -5.564%. With Cc1ccc(O)c(-c2cc(NCCO)nc3[nH]ccc23)c1 the screen gave Mtb cholesterol medium: -13.48% and -19.47%; Mtb glucose medium: 7.589%.

Result for [H][C@@]12CCN(C(=O)c3cccnc3OC)C[C@@]1([H])O[C@H](c1ccncn1)C2 was Mtb cholesterol medium: -24.03%; Mtb glucose medium: -7.348%. CCC(CC)C(=O)N1CCOC2(CNC2)C1 read Mtb cholesterol medium: 3.961%; Mtb glucose medium: 5.603%. With CCC[C@H]1CN(S(C)(=O)=O)C[C@@H]1NC(=O)CCCn1ccnc1 the screen gave Mtb cholesterol medium: -3.766%; Mtb glucose medium: 2.223% and 15.5%. O=C(NCc1nnc2n1CCC2)NCC1(c2cccc(F)c2)CC1 gave Mtb cholesterol medium: 6.982%; Mtb glucose medium: 1.274%. Cc1cc(CN(C)C2CCN(c3cccc(-c4cscn4)c3)CC2)on1 gave Mtb cholesterol medium: 4.661%; Mtb glucose medium: 53.3%.

O=C(CCc1ccc2c(c1)OCO2)N1CCCC(n2cccn2)C1 (configuration not stated) read Mtb cholesterol medium: 14.86%; Mtb glucose medium: 23.82%. Cc1cnn(C2CN(CC(=O)Nc3cccnc3)C2)c1 gave Mtb cholesterol medium: -3.026%; Mtb glucose medium: 7.689%. For CN1CCCC1c1ccnc(C(=O)N(C)C2CCCCC2)c1 (configuration not stated) the result was Mtb cholesterol medium: -13.69%; Mtb glucose medium: -6.296%. Result for Cc1nc(-c2cnn(C)c2)sc1C(=O)NCc1cccc(CN(C)C)c1 was Mtb cholesterol medium: 10.55%; Mtb glucose medium: 21.97%. Cc1ccc2c(c1)OCCCC2NCc1nnc2n1CCCCC2 (configuration not stated) gave Mtb cholesterol medium: 5.881%; Mtb glucose medium: 34.76%.

For CCCS(=O)(=O)NCc1cccnc1Oc1ccc(C)nc1 the result was Mtb cholesterol medium: 12.69% and 4.768%; Mtb glucose medium: 9.39%. Result for O=C(NCCOc1ccc(F)cc1)C1CCCN(C(=O)C2CC2)C1 (configuration not stated) was Mtb cholesterol medium: -8.034%; Mtb glucose medium: 5.868% and 10.02%. Result for COCCO[C@H]1CCN(C(=O)c2ccsc2)[C@H]1Cc1cnn(C)c1 was Mtb cholesterol medium: -8.201% and -5.252%; Mtb glucose medium: -24.08%. With CC(=O)N[C@@H]1CN(C(=O)c2ccncc2)C[C@H]1c1ccc(C)cc1 the screen gave Mtb cholesterol medium: -16.9%; Mtb glucose medium: -29.46%. With Cc1ccc(N2CCCN(C(=O)C3CCCO3)CC2)nn1 (configuration not stated) the screen gave Mtb cholesterol medium: 8.784%; Mtb glucose medium: 12.57% and 24.67%.

For CO[C@H]1CCN(c2ncccn2)[C@H]1Cc1ccccc1 the result was Mtb cholesterol medium: -8.826%; Mtb glucose medium: -16.29%. Result for Cc1ccc(C(NC(=O)[C@H]2CC[C@@H](O)CC2)c2cccnc2)cc1C (some centres not stated) was Mtb cholesterol medium: -1.477%; Mtb glucose medium: 30.68%. CCc1ccc(C(NC(=O)CN(C)S(C)(=O)=O)C(C)(C)C)o1 (configuration not stated) read Mtb cholesterol medium: -17.82%; Mtb glucose medium: -1.747% and -15.52%. With Cc1ccc2c(c1)C1(CCNCC1)CN2C(=O)C(C)C the screen gave Mtb cholesterol medium: -1.988%; Mtb glucose medium: -3.956%. With O=C1NCCCN1Cc1nc(-c2ccc(N3CCCCC3)cc2)no1 the screen gave Mtb cholesterol medium: 13.78%; Mtb glucose medium: 4.959% and -36.83%.

Cc1nonc1CN(C)Cc1cnn(-c2ccc(Cl)cc2)c1 read Mtb cholesterol medium: 16.93%; Mtb glucose medium: 21.76%. [H][C@]12C[C@@H](C(=O)N(C)Cc3ccccn3)CO[C@@]1([H])CCN(CCOC)C2 read Mtb cholesterol medium: -0.3355%; Mtb glucose medium: 2.778%. For Cn1nnnc1SCc1cc2c(cc1Cl)OCO2 the result was Mtb cholesterol medium: -9.995%; Mtb glucose medium: -12.96%. With CN(Cc1nc(N)c2ccccc2n1)CC1CCCN1c1cccnn1 (configuration not stated) the screen gave Mtb cholesterol medium: -21.66%; Mtb glucose medium: 10.42%.